Measured values published in article PMC9232636, “Insights into the mechanism of action of the arbitrium communication system in SPbeta phages” (Nature Communications, 2022).
These are yes or no findings as the source states them, for the method shown. Binding calls can cover weak binding; strength is not graded here.

Biological target: AimR^Kat-N273A (Katmira phage (resident phage of Bacillus subtilis subsp. KATMIRA1933))
Test: thermal shift assay (ThermoFluor); 20 μM protein, 5× Sypro Orange, 0.5 μM peptide as printed; 20 mM Tris pH 8, 250 mM NaCl; 25 to 85 °C; both purified

GMPRGA [AimP^SPβ, the SPβ AimP peptide GMPRGA] was tested, and the binding was “binds”.

For GIVRGA [AimP^Kat, active (mature) Katmira AimP peptide GIVRGA], the binding was “binds”.
